Measured values as given in paper PMC11362830.
Results are given in words; binding and its absence hold for the method and conditions named. In cells and extracts the contact can be indirect. Some results given as binding are weak or reduced against the parent protein; the word gives no strength.

By UniProt entry, the sequences of proteins in these tests, tags left out. Residues count along the entry.
UniProt P63165, residues 1-97: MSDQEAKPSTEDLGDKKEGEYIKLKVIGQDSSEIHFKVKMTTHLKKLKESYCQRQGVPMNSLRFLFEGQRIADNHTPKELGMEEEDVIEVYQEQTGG
UniProt P08151: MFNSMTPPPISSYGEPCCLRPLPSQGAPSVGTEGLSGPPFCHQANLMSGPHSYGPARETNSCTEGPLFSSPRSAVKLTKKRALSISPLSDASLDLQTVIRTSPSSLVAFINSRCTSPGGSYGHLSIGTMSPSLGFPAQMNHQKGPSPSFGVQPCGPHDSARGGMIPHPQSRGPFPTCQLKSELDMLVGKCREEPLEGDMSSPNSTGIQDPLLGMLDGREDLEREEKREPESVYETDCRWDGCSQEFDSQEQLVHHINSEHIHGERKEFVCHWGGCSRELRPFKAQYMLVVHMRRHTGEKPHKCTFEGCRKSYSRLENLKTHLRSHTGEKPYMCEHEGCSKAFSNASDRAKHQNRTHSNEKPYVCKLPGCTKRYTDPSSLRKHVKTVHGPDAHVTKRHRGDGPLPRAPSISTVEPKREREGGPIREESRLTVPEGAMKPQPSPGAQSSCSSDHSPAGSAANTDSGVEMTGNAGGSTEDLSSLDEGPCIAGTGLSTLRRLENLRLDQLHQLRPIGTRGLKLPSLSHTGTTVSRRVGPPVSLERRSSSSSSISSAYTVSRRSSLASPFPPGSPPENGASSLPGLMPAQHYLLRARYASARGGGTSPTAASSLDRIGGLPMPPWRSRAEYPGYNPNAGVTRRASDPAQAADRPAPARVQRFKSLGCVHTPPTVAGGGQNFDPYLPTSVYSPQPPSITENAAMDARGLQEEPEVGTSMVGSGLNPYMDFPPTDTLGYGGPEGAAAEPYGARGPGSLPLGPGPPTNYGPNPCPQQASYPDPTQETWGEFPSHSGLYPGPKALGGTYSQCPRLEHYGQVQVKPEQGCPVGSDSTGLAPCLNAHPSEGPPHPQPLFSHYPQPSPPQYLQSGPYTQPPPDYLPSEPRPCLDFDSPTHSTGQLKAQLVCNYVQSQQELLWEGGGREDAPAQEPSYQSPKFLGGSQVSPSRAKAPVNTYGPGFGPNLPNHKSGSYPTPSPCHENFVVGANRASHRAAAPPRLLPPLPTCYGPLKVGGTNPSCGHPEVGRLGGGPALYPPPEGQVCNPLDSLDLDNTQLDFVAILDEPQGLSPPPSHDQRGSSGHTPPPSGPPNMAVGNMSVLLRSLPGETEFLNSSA

Assays:
Flag-SUMO1 = Flag-SUMO1 (UniProt P63165); experiment: co-IP; lysate of HEK 293T cells transfected with Myc-Gli1 and Flag-SUMO1, immunoprecipitated with anti-Flag, immunoblotted with anti-Flag and anti-Myc (Figure 3H)
[1] = target: Gli1 (human (endogenous in primary LF cells)) (UniProt P08151); experiment: co-IP; LF cell lysate, Gli1 precipitated, SUMO1 detected by immunoblot (Figure 3F)
[2] = target: SUMO1 (human (endogenous in primary LF cells)) (UniProt P63165); experiment: co-IP; reverse Co-IP: LF cell lysate, SUMO1 precipitated, Gli1 detected by immunoblot (Figure 3G)

Myc-Gli1 (from UniProt P08151 1-1106) was tested. Which binding (Flag-SUMO1) did it give?
Its binding is “binds”.

Which binding [1] does the source give for SUMO1 (from UniProt P63165 1-97) here?
The binding was “binds”.

Which binding [2] does the source give for Gli1 (from UniProt P08151 1-1106) here?
Its binding is “binds”.
